According to PMC8934670:
The exact form of at least one protein or probe is not confirmed. Weaker means in comparison with the reference protein, sequence or condition of that experiment.

Chains of the proteins cited; added tags and fusions are not shown.
UniProt Q8N884, whole entry: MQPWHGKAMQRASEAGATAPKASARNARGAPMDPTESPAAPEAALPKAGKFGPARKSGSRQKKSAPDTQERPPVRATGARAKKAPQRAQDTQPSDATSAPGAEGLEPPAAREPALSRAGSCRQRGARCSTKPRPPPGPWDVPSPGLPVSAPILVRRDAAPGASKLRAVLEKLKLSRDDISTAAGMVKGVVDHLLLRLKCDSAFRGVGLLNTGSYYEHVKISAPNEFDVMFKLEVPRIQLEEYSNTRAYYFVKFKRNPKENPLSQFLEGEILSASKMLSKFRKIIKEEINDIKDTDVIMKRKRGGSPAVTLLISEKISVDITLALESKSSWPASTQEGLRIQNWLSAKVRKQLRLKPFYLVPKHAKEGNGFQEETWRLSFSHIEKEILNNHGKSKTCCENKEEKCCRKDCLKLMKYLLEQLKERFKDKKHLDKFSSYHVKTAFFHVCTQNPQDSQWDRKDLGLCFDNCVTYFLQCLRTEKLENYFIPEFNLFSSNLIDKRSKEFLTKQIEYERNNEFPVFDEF

Target: cGAS (human) (UniProt Q8N884)
Experiment: EMSA
Conditions: 5-10 uM cGAS, 25-50 fmol DNA, 1 mM MgCl2, text: substantially reduced, legend: not bound; 10 mM HEPES-NaOH pH 7.5, 100 mM NaCl, 1 mM DTT, 1 mM MgCl2, 20 ug/ml BSA, 25 C, 30 min; native PAGE (6% in Methods, 5% in legends), 0.5x TBE; recombinant protein; protein details: His (pET28a); label: 32P

Sequence: TACAGATCTACTAGTGATCTATGACTGATCTGTACATGATCTACACCAAAGAGCAGTGTAGATCATGTACA [5'-resected substrate]
- binding result: binds more weakly

Sequence: TGTACATGATCTACACCAAAGAGCAGTGTAGATCATGTACAGATCAGTCATAGATCACTAGTAGATCTGTA [3'-resected substrate]
- binding result: binds more weakly
